# PubChem BioAssay (EPA / NIEHS)
# The chains behind the UniProt entries cited, without tags or fusion partners. Where a name states a change or a piece, a line headed by the entry shows the natural chain unless it says otherwise.
# UniProt P10275: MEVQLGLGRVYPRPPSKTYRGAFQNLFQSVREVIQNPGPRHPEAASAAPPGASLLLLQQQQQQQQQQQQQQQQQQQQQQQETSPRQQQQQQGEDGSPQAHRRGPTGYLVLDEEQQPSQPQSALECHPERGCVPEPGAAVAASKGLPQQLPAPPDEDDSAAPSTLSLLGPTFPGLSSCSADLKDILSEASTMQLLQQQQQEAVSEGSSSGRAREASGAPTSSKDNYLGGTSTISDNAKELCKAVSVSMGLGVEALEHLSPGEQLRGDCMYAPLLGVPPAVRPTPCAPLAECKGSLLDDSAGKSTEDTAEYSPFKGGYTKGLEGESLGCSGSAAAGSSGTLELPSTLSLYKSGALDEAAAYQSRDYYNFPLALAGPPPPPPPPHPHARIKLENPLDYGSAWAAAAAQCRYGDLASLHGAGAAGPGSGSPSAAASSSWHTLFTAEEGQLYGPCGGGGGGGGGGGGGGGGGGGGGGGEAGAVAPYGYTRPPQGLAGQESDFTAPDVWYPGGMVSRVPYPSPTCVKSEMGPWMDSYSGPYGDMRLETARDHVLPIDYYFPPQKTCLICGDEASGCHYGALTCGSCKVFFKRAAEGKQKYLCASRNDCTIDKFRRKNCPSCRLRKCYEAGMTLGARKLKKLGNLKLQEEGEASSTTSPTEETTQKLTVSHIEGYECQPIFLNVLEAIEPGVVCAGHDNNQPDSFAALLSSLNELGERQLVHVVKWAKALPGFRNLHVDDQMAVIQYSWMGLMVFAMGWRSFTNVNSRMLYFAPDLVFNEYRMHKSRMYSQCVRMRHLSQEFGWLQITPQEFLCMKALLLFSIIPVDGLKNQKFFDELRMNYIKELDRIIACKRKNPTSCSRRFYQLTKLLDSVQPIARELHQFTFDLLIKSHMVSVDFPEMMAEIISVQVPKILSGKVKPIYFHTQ
# UniProt P11509: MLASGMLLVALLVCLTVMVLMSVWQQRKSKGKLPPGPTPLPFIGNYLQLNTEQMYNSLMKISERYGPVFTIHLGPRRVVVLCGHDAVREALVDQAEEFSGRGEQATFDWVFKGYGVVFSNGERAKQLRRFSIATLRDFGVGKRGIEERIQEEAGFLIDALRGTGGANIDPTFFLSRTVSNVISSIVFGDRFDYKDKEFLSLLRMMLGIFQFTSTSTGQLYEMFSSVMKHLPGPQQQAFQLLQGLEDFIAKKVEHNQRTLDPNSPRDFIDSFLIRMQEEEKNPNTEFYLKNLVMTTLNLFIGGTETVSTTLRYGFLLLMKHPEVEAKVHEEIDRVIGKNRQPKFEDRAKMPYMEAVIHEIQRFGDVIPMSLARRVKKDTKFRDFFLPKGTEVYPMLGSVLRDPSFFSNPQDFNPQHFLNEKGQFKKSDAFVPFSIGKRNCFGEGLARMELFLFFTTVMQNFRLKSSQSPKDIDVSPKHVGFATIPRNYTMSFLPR
# UniProt P08253: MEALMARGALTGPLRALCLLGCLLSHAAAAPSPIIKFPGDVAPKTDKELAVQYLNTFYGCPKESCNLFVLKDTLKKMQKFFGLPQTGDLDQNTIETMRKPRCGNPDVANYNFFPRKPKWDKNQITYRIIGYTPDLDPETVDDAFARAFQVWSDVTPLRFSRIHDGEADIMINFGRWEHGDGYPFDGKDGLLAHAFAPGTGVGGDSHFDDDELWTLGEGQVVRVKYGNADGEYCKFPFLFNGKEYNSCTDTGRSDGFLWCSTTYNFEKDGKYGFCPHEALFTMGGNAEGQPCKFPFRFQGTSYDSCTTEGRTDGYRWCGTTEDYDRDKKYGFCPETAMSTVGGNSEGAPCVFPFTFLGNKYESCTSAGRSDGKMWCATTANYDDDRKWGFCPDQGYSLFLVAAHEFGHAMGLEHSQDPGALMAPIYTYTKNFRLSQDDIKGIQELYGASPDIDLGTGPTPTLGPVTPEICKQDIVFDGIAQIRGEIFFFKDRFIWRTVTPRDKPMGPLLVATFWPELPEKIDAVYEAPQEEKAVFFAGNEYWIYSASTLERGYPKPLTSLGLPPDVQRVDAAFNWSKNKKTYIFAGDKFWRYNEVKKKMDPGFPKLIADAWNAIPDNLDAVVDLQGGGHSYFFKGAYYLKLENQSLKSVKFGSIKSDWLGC
# UniProt P03372, whole entry, looked up: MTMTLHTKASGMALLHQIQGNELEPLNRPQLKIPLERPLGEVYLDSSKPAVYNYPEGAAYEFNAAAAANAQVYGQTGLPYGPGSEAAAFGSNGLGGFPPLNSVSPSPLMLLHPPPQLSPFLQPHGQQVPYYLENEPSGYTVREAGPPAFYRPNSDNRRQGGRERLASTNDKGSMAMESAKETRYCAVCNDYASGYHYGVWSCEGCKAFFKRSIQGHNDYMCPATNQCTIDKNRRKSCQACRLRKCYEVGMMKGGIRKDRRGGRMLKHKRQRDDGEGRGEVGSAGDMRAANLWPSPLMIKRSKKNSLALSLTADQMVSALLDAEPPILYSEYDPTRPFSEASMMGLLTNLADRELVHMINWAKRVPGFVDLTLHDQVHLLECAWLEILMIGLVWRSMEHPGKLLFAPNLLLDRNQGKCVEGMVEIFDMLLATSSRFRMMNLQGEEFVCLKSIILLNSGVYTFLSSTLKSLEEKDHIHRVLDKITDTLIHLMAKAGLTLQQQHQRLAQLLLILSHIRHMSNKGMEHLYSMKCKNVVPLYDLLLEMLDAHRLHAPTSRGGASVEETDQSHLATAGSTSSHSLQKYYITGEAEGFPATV
# UniProt P49137, whole entry, looked up: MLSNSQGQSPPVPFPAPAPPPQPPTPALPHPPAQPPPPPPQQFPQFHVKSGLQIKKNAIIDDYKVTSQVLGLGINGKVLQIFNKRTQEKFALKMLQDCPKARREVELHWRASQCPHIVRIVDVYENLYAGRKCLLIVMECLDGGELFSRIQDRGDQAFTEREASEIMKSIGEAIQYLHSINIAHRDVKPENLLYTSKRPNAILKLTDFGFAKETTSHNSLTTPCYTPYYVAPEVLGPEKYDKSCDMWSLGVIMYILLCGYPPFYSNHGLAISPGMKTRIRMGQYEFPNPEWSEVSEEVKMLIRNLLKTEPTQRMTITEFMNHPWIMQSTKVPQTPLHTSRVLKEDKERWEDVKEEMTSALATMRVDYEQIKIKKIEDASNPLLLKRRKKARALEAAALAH
# UniProt P29350: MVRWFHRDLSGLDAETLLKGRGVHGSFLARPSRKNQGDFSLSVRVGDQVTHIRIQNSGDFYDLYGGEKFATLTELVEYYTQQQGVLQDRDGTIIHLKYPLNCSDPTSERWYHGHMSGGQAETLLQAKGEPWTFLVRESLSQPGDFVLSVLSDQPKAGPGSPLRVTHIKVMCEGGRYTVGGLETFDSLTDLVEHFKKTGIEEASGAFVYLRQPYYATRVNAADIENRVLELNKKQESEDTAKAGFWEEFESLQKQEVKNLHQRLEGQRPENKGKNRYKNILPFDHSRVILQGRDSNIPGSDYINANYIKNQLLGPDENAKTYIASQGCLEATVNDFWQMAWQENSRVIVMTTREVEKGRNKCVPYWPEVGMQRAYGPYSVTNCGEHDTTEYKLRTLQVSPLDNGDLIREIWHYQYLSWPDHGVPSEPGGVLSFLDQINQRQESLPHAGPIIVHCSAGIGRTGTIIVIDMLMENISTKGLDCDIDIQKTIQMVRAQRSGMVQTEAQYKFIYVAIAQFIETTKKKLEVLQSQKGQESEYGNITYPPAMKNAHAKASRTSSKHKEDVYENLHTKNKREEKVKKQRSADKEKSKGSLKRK
# UniProt P33535, whole entry, looked up: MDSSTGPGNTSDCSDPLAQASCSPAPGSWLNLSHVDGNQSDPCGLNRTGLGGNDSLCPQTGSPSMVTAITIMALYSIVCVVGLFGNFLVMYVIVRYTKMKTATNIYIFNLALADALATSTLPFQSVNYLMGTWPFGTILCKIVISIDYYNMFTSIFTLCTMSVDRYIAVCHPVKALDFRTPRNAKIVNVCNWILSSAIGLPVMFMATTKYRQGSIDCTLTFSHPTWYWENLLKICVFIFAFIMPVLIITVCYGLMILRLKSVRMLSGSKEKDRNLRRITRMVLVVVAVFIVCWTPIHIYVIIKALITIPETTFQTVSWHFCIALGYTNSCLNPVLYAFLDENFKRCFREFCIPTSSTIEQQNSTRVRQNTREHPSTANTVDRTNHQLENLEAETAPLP
# UniProt P30536, whole entry, looked up: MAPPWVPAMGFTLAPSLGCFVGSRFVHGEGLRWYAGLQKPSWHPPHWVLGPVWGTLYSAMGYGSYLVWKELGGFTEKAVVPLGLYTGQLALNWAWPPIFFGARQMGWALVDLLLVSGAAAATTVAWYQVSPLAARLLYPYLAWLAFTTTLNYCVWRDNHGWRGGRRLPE
# UniProt Q14994: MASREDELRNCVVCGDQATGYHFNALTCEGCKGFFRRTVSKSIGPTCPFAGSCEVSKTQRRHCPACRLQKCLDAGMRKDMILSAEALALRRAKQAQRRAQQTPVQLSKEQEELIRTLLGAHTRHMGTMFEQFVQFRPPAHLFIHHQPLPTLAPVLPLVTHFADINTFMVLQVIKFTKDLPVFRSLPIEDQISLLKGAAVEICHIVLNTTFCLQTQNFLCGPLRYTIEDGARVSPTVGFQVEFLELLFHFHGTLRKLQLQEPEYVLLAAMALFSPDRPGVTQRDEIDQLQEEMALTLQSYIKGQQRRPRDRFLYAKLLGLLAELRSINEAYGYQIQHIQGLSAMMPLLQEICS
# UniProt P19490: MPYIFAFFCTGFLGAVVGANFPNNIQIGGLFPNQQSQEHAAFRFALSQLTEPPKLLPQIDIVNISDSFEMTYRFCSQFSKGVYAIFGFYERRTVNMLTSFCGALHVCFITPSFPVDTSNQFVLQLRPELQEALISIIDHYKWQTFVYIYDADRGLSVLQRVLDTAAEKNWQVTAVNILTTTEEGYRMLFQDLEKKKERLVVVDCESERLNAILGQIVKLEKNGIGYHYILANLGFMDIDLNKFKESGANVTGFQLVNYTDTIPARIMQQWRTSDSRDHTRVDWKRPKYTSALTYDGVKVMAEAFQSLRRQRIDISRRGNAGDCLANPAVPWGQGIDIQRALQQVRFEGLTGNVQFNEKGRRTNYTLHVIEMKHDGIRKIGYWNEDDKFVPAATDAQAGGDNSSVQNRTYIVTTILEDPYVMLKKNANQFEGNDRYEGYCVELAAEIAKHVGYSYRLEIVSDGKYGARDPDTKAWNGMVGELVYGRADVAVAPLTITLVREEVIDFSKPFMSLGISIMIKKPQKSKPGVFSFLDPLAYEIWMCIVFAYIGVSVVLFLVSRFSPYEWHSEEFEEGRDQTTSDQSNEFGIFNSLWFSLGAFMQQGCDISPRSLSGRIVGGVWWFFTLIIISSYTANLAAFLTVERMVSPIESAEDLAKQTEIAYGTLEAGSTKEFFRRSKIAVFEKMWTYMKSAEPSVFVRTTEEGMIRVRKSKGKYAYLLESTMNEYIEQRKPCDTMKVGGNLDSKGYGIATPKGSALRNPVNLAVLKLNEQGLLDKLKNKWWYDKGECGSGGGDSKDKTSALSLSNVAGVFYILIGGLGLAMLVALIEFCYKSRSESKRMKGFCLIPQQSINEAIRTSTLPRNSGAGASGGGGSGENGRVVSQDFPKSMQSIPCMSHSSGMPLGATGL
# UniProt P23975, whole entry, looked up: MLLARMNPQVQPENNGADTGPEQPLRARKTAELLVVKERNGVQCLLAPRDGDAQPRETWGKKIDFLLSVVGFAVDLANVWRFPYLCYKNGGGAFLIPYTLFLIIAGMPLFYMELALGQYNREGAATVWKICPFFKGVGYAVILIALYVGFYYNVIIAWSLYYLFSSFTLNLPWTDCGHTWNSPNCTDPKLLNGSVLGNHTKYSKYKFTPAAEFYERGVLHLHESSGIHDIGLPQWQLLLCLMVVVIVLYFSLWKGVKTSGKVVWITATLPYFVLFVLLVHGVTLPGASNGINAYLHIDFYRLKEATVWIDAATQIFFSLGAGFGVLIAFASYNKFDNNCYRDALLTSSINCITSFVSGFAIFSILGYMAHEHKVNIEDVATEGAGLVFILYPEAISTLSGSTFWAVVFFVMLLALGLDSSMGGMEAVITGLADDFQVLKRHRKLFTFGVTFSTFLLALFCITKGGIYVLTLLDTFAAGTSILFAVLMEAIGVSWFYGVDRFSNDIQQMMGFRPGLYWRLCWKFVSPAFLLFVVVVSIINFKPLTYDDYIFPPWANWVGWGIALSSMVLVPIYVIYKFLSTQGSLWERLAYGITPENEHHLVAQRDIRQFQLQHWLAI
# Where “and” joins values, the source holds several entries; their conditions need not be identical. Equal entries are not always repeated. The shares of active, inactive and inconclusive entries below differ from those in the screen. For some of these results: A potency beside an inconclusive call is a rough fit, not a confirmed value. Calls of active or inactive are those of the source. How the source made its calls: active means hit-call score of the fitted dose curve at least 0.9, where 1 is the maximum; inconclusive means response in the unintended direction; inactive means score below 0.9.
# Experiments:
# [1] = biological target: human Androgen Receptor (AR), AR (gene 367) (UniProt P10275); test: NVS_NR_hAR: NovaScreen (NVS) Nuclear Receptor Binding Assay for human Androgen Receptor (AR) (AID 2283332)
# In short: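 LnCAP cell-free extract; radioligand displacement read by scintillation counting after 20 h. Primary screen single concentration 25 uM in duplicate, actives then run as concentration series; loss-of-signal fitted relative to DMSO baseline.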
# [2] = biological target: human CYP2A6, CYP2A6 (gene 1548) (UniProt P11509); test: NVS_ADME_hCYP2A6: NovaScreen (NVS) CYP450-related Enzyme Activity (ADME) Assay for human CYP2A6 (AID 2283099)
# In short: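 Recombinant human CYP2A6 from insect cells was incubated with chemical for 0.5 h and activity read by fluorescence. Single-concentration duplicates at 10 uM preceded concentration-response testing to 20 uM, with activity referenced to acetonitrile.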
# [3] = biological target: human Matrix Metalloproteinase-2 (MMP2), MMP2 (gene 4313) (UniProt P08253); test: NVS_ENZ_hMMP2: NovaScreen (NVS) Enzymatic Assay for human Matrix Metalloproteinase-2 (MMP2) (AID 2283184)
# In short: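 Cell-free recombinant MMP2 activity with a fluorescent substrate, read 1 h after dosing. Primary screen in duplicate at 25 uM; actives then run in concentration series; loss of signal fitted versus DMSO.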
# [4] = biological target: Estrogen receptor (Homo sapiens) (UniProt P03372); test: CCTE_Deisenroth_AIME_384WELL_LUC_Inactive: CCTE's 384-well Estrogen Receptor Transactivation Assay without AIME metabolic competence (ERTA luciferase; metabolism negative), Deisenroth Lab (AID 2284038);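 further: VM7Luc4E2 breast cells given medium preincubated 2 h with S9-free microspheres; hits raise estrogen receptor luciferase signal so potencies reflect agonists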
# In short: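 Metabolism-negative mode: chemicals (10-point, 0.002–200 uM) held 2 h with alginate-water microspheres, then conditioned medium applied to VM7Luc4E2 cells for 24 h. Luciferase induction referenced to 17beta-estradiol.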
# [5] = biological target: human MAP Kinase-Activated Protein Kinase 2 (MAPKAPK2), MAPKAPK2 (gene 9261) (UniProt P49137); test: NVS_ENZ_hMAPKAPK2: NovaScreen (NVS) Enzymatic Assay for human MAP Kinase-Activated Protein Kinase 2 (MAPKAPK2) (AID 2283178)
# In short: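 Cell-free recombinant human MAPKAPK2 activity measured by fluorescence with electrophoretic mobility shift separation of substrate and product, 1 hr after dosing. Loss of signal versus DMSO; primary screen at 25 uM, concentration-response up to 50 uM.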
# [6] = biological target: human Protein Tyrosine Phosphatase Non-receptor Type 6 (PTPN6), PTPN6 (gene 5777) (UniProt P29350); test: NVS_ENZ_hPTPN6: NovaScreen (NVS) Enzymatic Assay for human Protein Tyrosine Phosphatase Non-receptor Type 6 (PTPN6) (AID 2283210)
# In short: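 Cell-free assay with recombinant PTPN6 expressed in SF9 cells, fluorescent substrate, product separated from substrate by electrophoretic mobility shift; read 1.33 hours after dosing. Primary screen in duplicate at 25 uM, actives retested in concentration series; DMSO baseline.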
# [7] = Tanguay_ZF_120hpf_OTIC_legacy: (Legacy) Oregon State University Tanguay Lab 120 Hour Post-fertilization zebrafish Assay for Otic Vesicle Malformation (AID 2283639)
# In short: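 Embryos from 5D wild-type adults exposed in plates; DMSO 0.64% v/v final. Sealed, light-protected, 28C, static to 120 hpf. Otic vesicle malformation recorded as binary endpoint; gain-of-signal fitted vs DMSO.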
# [8] = biological target: rat Opioid Receptor, Non-selective Binding, Oprm1 (gene 25601) (UniProt P33535); test: NVS_GPCR_rOpiate_NonSelective: NovaScreen (NVS) G Protein-Coupled Receptor Assay for rat Opioid Receptor, Non-selective Binding (AID 2283318)
# In short: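 Rat forebrain membranes, cell-free radioligand binding with filter-based scintillation counting, read 1.5 h after dosing. Primary screen in duplicate at 25 uM; actives retested in concentration series. Loss of signal versus DMSO baseline scored.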
# [9] = biological target: human Peripheral-type Benzodiazepine Receptor (PBR), TSPO (gene 706) (UniProt P30536); test: NVS_MP_hPBR: NovaScreen (NVS) Membrane Protein Assay for human Peripheral-type Benzodiazepine Receptor (PBR) (AID 2283331);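 further: hits reduce radioligand binding relative to DMSO baseline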
# In short: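 Radioligand displacement on human colonic cell membranes, 1 h incubation; bound radioactivity by filtration and scintillation counting. Primary screen in duplicate at 25 uM single concentration, actives followed up in concentration series; loss of binding versus DMSO.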
# [10] = biological target: Agonist Androgen Response Element (ARE), AR (gene 367) (UniProt P10275); test: OT_AR_ARELUC_AG_1440: Odyssey Thera (OT) 24-hour CHO-K1 Luciferase Assay for Agonist Androgen Response Element (ARE) (AID 2283379)
# In short: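 CHO-K1 cells carrying an ARE-driven luciferase reporter were exposed to compounds for 24 h. Luminescence was then read after adding a D-luciferin/ATP mix, and activity was scored as a gain in signal over DMSO vehicle.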
# [11] = read-out: ABC Transporter (ABCB11), ABCB11 (gene 8647); test: CLD_ABCB11_6hr: CellzDirect (CLD) Gene Expression Assay for ABC Transporter (ABCB11) at 6 hours (AID 2283675);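 further: hits raise ABCB11 mRNA level so AC50 marks induction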
# In short: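 Human primary hepatocytes (two donor preparations) given fresh chemical daily at multiple concentrations, vehicle 0.2% DMSO. ABCB11 mRNA induction measured 6 h after dosing by qNPA chemiluminescence versus DMSO; cytotoxicity annotated from morphology.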
# [12] = CCTE_Mundy_HCI_Cortical_Synap_Neur_Matur_NeuronCount: CCTE's Synaptogenesis and Neurite Maturation Assay in rat cortical cells for Neuron Count, Mundy Lab (AID 2284242);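 on AC50: hits reduce neuron count versus DMSO baseline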
# In short: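 Neuron number was scored by automated high-content imaging of Hoechst- and MAP2-labelled rat primary cortical cells. Glial growth was arrested with AraC at DIV 5, compounds were applied from DIV 7, and cultures ended at DIV 12.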
# [13] = biological target: Nuclear receptor subfamily 1 group I member 3 (Homo sapiens) (UniProt Q14994); test: ATG_CAR_TRANS: Attagene TRANS-FACTORIAL HepG2 Assay for human Constitutive Androstane Receptor (CAR) (AID 2282969); conditions: HepG2 Attagene TRANS-FACTORIAL CAR reporter;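 further: activators raise reporter mRNA above DMSO so AC50 marks induction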
# In short: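 HepG2 cells transiently transfected with GAL4-UAS reporter units; TRANS format reads activity of exogenous chimeric NR-Gal4 protein. After 24 h dosing, reporter mRNA quantified by RT-PCR, 6-FAM labelling and capillary electrophoresis; gain of signal fitted against DMSO.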
# [14] = biological target: rat Glutamate, AMPA Site (AMPA), Gria1 (gene 50592) (UniProt P19490); test: NVS_LGIC_rAMPA: NovaScreen (NVS) Ligand-Gated Ion Channel Assay for rat Glutamate, AMPA Site (AMPA) (AID 2283324)
# In short: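 Rat forebrain membranes; radioligand binding read 1 h after dosing by filtration and scintillation counting. Duplicate single-point screen at 25 uM, then concentration-response to 50 uM for threshold hits (e.g. 30% inhibition); loss of signal vs DMSO.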
# [15] = biological target: human Norepinephrine Transporter (NET), SLC6A2 (gene 6530) (UniProt P23975); test: NVS_TR_hNET: NovaScreen (NVS) Transporter Assay for human Norepinephrine Transporter (NET) (AID 2283377);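 further: displacement of radioligand from human NET seen as loss of scintillation signal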
# In short: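 Cell-free radioligand binding using CHO-derived membrane protein expressing human NET, read by filter scintillation counting 1 h after dosing; loss of signal vs DMSO. Initial duplicate screen at 25 uM, actives retested in concentration series.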
# [16] = system: frog Estrogen Receptor (ESR1), gene 398734; test: ATG_frER1_XSP1: Attagene TRANS-FACTORIAL Multi-Species (XSP1) HepG2 Assay for frog Estrogen Receptor (ESR1) (AID 2283777)
# In short: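 HepG2 cells transiently transfected with frog ER–GAL4 chimera and GAL4-UAS reporter, with 3 nM 6-alpha-fluorotestosterone present; 24 h dosing, reporter mRNA quantified by RT-PCR and capillary electrophoresis, gain of signal versus DMSO.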
# [17] = TOX21_PR_LUC_Followup_Antagonist_viability: Viability Assessment in the Tox21 HEK293 Progesterone Receptor (PR) Antagonism Luciferase Follow-Up Assay (AID 2283940)
# In short: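 Multiplexed viability counter-screen: after 5 days in charcoal-stripped-FBS medium, HEK293-PR-A-luc cells are plated, pinned with DMSO-dissolved compounds for 16 h at 37C, and ATP content is quantified luminescently via CellTiter-Glo.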
compound,measurement,setting,value
N#CCCO,outcome,[1],inactive
ClC(Cl)c1ccccc1,AC50,[2],inconclusive: 2.67 µM
same,AC50,[3],inconclusive: 1.01 µM
same,outcome,[4],inactive
CCOCCOC(C)=O,outcome,[5],inactive
same,outcome,[6],inactive
same,outcome,[7],inactive
CCOC(=O)CC(SP(=S)(OC)OC)C(=O)OCC (stereo unspecified),AC50,[2],active: 1.98 µM
same,AC50,[3],inconclusive: 0.188 µM
same,AC50,[8],inconclusive: 1.52 µM
same,AC50,[9],active: 2.17 µM
same,outcome,[10],inactive
same,outcome,[11],inactive
same,AC50,[12],active: 50 µM and inconclusive: 0.463 nM
Nc1ccc([N+](=O)[O-])cc1Cl,AC50,[13],inconclusive: 100 µM
COCCOCCO,AC50,[14],inconclusive: 25 µM
N#CCc1ccc(Cl)cc1,AC50,[15],inconclusive: 25 µM
OC(c1ccc(Cl)cc1)(c1cncnc1)c1ccccc1Cl (stereo unspecified),AC50,[2],active: 2.37 µM
same,AC50,[16],inconclusive: 100 µM
COC(=O)c1ccccc1S(=O)(=O)NC(=O)N(C)c1nc(C)nc(OC)n1,AC50,[5],active: 9.14 µM
same,AC50,[6],inconclusive: 25 µM
CCNc1nc(Cl)nc(NC(C)C)n1,AC50,[9],inconclusive: 25 µM
NNc1ccccc1,outcome,[13],inactive
OC(Cc1ccccc1Cl)(Cn1[nH]cnc1=S)C1(Cl)CC1 (stereo unspecified),outcome,[1],inactive
COP(=O)(OC)O/C(C)=C/C(=O)N(C)C,outcome,[12],inactive
CON=C(C(=O)OC)c1ccccc1CON=C(C)c1cccc(C(F)(F)F)c1,outcome,[13],inactive
Clc1ccc(COC(Cn2ccnc2)c2ccc(Cl)cc2Cl)cc1 (stereo unspecified),AC50,[10],inconclusive: 49.8 µM
CC1COC(Cn2cncn2)(c2ccc(Oc3ccc(Cl)cc3)cc2Cl)O1 (stereo unspecified),outcome,[9],inactive
COC(=O)NS(=O)(=O)c1ccc(N)cc1,AC50,[7],inconclusive: 44 µM
CCOP(=S)(OCC)SCSc1ccc(Cl)cc1,AC50,[17],inconclusive: 46.1 µM
CN(CCCC(=O)c1cccnc1)N=O,AC50,[15],inconclusive: 25 µM

# Reformatted with bars between the fields: part of the list above.
compound | measurement | setting | value
OC(c1ccc(Cl)cc1)(c1cncnc1)c1ccccc1Cl (stereo unspecified) | AC50 | [16] | inconclusive: 100 µM
COC(=O)c1ccccc1S(=O)(=O)NC(=O)N(C)c1nc(C)nc(OC)n1 | AC50 | [5] | active: 9.14 µM
